For three molecules, binding results are on record in publication PMC8546589.

Results are given in words; binding and its absence hold for the method and conditions named. Binding seen in cells or lysates may run through a third protein. Here binding means that the protein was enriched with, or labelled near, the bait; the list need not be complete. Sequences can lack the tags named with a protein.

Holding throughout (assay): affinity purification with mass spectrometry; anti-c-Myc agarose IP from whole-cell lysate of E. histolytica lines overexpressing the Myc-tagged bait (EhAgo2-2 WT, its two mutants, EhRdRP1, EhRdRP2), 2 h at 4°C, six low-stringency washes; LC-MS/MS in triplicate; nonribosomal hits in at least 2 of 3 data sets, exclusive or ≥3-fold enriched against the Luc control
In test [1] the target is T1, Myc-EhRdRP2 (E. histolytica) (UniProt C4M631).
T1 sequence: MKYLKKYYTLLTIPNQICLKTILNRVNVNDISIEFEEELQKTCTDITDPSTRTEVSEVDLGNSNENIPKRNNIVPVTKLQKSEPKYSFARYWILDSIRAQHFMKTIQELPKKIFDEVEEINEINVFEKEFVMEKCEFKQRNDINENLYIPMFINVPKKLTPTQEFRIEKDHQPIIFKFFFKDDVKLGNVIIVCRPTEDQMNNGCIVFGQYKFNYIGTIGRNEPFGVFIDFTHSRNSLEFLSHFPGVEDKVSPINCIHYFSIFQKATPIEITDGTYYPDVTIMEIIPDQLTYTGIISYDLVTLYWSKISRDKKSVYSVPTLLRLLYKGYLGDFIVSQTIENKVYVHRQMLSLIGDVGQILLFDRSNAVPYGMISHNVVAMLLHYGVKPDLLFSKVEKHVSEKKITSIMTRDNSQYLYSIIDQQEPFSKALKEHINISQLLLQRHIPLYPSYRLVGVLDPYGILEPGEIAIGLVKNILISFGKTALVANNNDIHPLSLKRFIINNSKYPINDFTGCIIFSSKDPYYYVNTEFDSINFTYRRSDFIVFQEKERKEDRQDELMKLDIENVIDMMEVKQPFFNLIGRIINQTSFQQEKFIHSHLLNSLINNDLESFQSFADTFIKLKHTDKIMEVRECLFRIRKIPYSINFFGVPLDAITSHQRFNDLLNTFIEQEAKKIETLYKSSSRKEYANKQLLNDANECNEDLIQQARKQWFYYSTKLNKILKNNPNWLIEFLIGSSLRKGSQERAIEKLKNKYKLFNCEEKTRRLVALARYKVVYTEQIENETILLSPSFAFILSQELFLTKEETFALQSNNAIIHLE

The target of test [2] is T2, Myc-EhAgo2-2 (E. histolytica) (UniProt C4LVV2).
T2 sequence: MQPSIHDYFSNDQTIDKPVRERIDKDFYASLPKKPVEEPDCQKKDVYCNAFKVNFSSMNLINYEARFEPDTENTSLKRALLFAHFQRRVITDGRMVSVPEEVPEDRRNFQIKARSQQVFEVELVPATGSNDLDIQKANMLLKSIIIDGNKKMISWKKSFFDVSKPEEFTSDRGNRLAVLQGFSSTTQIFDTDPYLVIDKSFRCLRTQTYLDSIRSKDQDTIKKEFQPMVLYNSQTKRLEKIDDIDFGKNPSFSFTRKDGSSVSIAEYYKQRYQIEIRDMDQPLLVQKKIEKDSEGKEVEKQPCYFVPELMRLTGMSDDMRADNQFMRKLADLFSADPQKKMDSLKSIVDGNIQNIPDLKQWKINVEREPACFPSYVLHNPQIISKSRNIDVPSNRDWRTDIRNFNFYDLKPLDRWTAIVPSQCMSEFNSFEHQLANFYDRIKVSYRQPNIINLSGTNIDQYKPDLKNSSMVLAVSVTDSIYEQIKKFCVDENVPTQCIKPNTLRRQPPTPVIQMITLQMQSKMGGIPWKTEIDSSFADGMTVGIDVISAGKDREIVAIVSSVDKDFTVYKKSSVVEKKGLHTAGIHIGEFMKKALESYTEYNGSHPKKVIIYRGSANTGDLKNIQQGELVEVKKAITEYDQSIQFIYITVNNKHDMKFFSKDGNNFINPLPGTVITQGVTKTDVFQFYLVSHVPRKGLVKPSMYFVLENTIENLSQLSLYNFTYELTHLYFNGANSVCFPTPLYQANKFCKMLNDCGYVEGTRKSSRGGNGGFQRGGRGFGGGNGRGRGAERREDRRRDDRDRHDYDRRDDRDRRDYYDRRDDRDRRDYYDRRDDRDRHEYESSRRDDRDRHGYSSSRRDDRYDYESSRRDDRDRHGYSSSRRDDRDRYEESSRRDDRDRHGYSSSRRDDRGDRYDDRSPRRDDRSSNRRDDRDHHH

The target in test [3] is T3, Myc-EhRdRP1 (E. histolytica) (UniProt C4M6W7).
T3 sequence: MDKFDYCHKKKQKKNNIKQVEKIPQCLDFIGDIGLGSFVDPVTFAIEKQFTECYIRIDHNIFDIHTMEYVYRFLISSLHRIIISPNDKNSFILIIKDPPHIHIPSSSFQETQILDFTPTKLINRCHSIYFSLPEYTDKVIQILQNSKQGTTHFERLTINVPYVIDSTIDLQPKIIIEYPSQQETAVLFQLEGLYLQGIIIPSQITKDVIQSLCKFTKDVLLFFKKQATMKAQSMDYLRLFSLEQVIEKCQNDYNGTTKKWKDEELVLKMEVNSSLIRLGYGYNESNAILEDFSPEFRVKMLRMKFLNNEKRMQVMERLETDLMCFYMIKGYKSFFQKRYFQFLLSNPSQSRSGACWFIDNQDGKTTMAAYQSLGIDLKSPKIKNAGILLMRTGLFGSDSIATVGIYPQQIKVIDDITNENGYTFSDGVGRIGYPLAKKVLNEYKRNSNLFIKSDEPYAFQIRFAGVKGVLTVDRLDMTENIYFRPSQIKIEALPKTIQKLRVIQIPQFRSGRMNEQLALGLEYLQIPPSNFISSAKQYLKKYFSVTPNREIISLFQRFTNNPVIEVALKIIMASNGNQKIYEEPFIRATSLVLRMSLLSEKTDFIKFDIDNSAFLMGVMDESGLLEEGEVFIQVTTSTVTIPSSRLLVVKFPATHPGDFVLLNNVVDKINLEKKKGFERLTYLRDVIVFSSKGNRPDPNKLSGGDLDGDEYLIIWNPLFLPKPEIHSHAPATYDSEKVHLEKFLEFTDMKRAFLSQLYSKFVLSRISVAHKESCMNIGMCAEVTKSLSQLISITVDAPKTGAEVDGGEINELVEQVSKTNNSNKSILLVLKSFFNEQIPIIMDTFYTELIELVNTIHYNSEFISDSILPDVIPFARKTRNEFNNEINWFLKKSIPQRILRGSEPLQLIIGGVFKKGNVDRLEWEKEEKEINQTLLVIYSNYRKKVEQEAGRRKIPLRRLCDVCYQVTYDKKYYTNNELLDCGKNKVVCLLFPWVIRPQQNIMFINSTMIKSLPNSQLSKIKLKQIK

EBP-2: in test [1], the binding result is “binds”. On the same count and under the same terms, next, NBP-2: “binds”.

B1: RecQ helicase (enzyme, UniProt C4M4V5 1-1182)
chain: MGETITNLEEELNEVRKEQMKYQKNRMRGYGEKVRKQGIRYIIGEKMKIGIMEEFIENKKRTEDIIRKMEMIGCKKKEEKKEEKKEEKKKMNKNALLIEQVIQTTDIEEIKDKEEIKDKEEIKDKEEIKDKEEIGKESIEISDEFLQEILGEKEEREQHNTYENIDMNEELEDIKMDEEVKENKPNKEIEEVEEIEMSEENKNEEEDIKISLMEINEEEKDMINLVSEEKLIFEGTEQKEQEVISIEDEIGSVEEILEKMEEEEKEREKEIKELEGGDEQKEIEMLEQDEMFKYLSQRGKEELEHIKGYLQKRIELIEKEIEKDIEEGKDQEKDEKVEKKNKENEEMRKIELIIKKGKYYQEENNSKEEEIKEENNNNNNKEGVIEEEIKYKEISEGGKYYVWKLGEFLKRNPGAQKYKEKKDIRVNGIKKFASIDSDWEKQEFSWKENIKKCNNTVFGNDSFRPSQEAIINCVMSRNNALVLMPTGGGKSLCYQLPSYFIKGITLVVSPLVSLIQDQVSNLVETGMEAIAFYSGSSSEDAKQFYKESYQKEGKCTIKFVFVTPERITQSKSFKEALNRYYENNNFGMVVIDEAHCISQWGHDFRDSYQKLSVFSQEYPGIPILMLTATATERVKNDILLSLGINEAVVFSQSFNRKNLTYCVRPKTKGVIDEIEEMIKRKYKGQSGIIYCLSQKNTMDIAQELNKRGIKSKYYHAGMDTKERTTVQKEWCDGEFNVICATIAFGMGIDKPDVRFVIHHSLPKSLEGYYQESGRAGRDGEPADCILYYNYRDKYTYERFFEKDKENNGDLSHIQTARNNLNEVISYCENTVDCRRTLVLQYFGEVFNSKLCNRTCDNCYNPSPTEVIDMTELGKIAVEIVRAHQRITANMVIGIMRGTSTMGKKFGETSKGFKSAKGKTEQVMERFMKVMYLEKVLSEMLIINSHGSISVYLKEGPKCKELMEGKIKIKVKCKKGANQIVEINNGIKMSEYQNSLMDKLNELRDQIFEEVRKQPGKEQLLKHNLFGTRVLKKIAAVMPRNKQEFEQIAMKRLLKEKYAERFISVVNNFINQHSSNSLNTSSFNPIKRTNPIKVDFNRKSGIRDNSDESIFDGIDLDEFADDDNATSDNNLEMTNPTIPSKKSIKKSSKKSIKKSIKKSIKKSIKKASKKSTNSSSNGIQPML
Regarding B1, the binding result in test [2] and in test [3] was “binds” throughout.
